The record followed here is article PMC8152081.

Results are given in words; binding and its absence hold for the method and conditions named. Binding seen in cells or lysates may run through a third protein. Binding can be weak; no strength is given. Sequences can lack the tags named with a protein.

The target in one experiment is Dvl2-ΔDIX-GFP. Put plainly: pull-down; lysate of Dvl2-ΔDIX-GFP transfected HCT116 cells mixed with purified KSRP-His; GFP-Trap beads, with or without DKC1125 (10 mM), pulldown buffer (50 mM Tris-Cl pH 7.5, 50 mM NaCl), 4 °C overnight; only the binder purified.
The next experiment concerns the target ΔKH12-KSRP-myc. In words: co-IP; Caco2 cells transfected with myc-tagged KSRP (WT, Δ12, Δ34, ΔC) and GFP-tagged RACK1 or V5-tagged KITENIN.
The target in a further experiment is ΔKH34-KSRP-myc. Described as above.

B1: KSRP-His (bacterially expressed full-length KSRP) (protein, UniProt Q92945 1-711)
chain: MSDYSTGGPPPGPPPPAGGGGGAGGAGGGPPPGPPGAGDRGGGGPGGGGPGGGSAGGPSQPPGGGGPGIRKDAFADAVQRARQIAAKIGGDAATTVNNSTPDFGFGGQKRQLEDGDQPESKKLASQGDSISSQLGPIHPPPRTSMTEEYRVPDGMVGLIIGRGGEQINKIQQDSGCKVQISPDSGGLPERSVSLTGAPESVQKAKMMLDDIVSRGRGGPPGQFHDNANGGQNGTVQEIMIPAGKAGLVIGKGGETIKQLQERAGVKMILIQDGSQNTNVDKPLRIIGDPYKVQQACEMVMDILRERDQGGFGDRNEYGSRIGGGIDVPVPRHSVGVVIGRSGEMIKKIQNDAGVRIQFKQDDGTGPEKIAHIMGPPDRCEHAARIINDLLQSLRSGPPGPPGGPGMPPGGRGRGRGQGNWGPPGGEMTFSIPTHKCGLVIGRGGENVKAINQQTGAFVEISRQLPPNGDPNFKLFIIRGSPQQIDHAKQLIEEKIEGPLCPVGPGPGGPGPAGPMGPFNPGPFNQGPPGAPPHAGGPPPHQYPPQGWGNTYPQWQPPAPHDPSKAAAAAADPNAAWAAYYSHYYQQPPGPVPGPAPAPAAPPAQGEPPQPPPTGQSDYTKAWEEYYKKIGQQPQQPGAPPQQDYTKAWEEYYKKQAQVATGGGPGAPPGSQPDYSAAWAEYYRQQAAYYGQTPGPGGPQPPPTQQGQQQAQ
As to B1, the binding entry with Dvl2-ΔDIX-GFP is “binds”.

B2: KITENIN-V5 (V5-tagged KITENIN) (protein, UniProt Q8TAA9 1-524)
chain: MDTESTYSGYSYYSSHSKKSHRQGERTRERHKSPRNKDGRGSEKSVTIQPPTGEPLLGNDSTRTEEVQDDNWGETTTAITGTSEHSISQEDIARISKDMEDSVGLDCKRYLGLTVASFLGLLVFLTPIAFILLPPILWRDELEPCGTICEGLFISMAFKLLILLIGTWALFFRKRRADMPRVFVFRALLLVLIFLFVVSYWLFYGVRILDSRDRNYQGIVQYAVSLVDALLFIHYLAIVLLELRQLQPMFTLQVVRSTDGESRFYSLGHLSIQRAALVVLENYYKDFTIYNPNLLTASKFRAAKHMAGLKVYNVDGPSNNATGQSRAMIAAAARRRDSSHNELYYEEAEHERRVKKRKARLVVAVEEAFIHIQRLQAEEQQKAPGEVMDPREAAQAIFPSMARALQKYLRITRQQNYHSMESILQHLAFCITNGMTPKAFLERYLSAGPTLQYDKDRWLSTQWRLVSDEAVTNGLRDGIVFVLKCLDFSLVVNVKKIPFIILSEEFIDPKSHKFVLRLQSETSV
Regarding B2, the binding result with ΔKH12-KSRP-myc and with ΔKH34-KSRP-myc was “binds” in each case.
